“And” between values parts separate entries of the source, which are not always exact repeats. Equal values may be shown once. Structures were worked out from names or drawings and are uncertain.
Key:
mice [1] = test: Antagonism of nicotine antinociception, tail-flick; type: in vivo, mouse; conditions: mice pretreated sc 10 min before nicotine 2.5 mg/kg sc
mice [2] = test: Antagonism of nicotine antinociception, hot-plate; type: in vivo, mouse; conditions: mice pretreated sc 10 min before nicotine 2.5 mg/kg sc

## Fc1ncc(C2CC3CCC2N3)cc1-c1ccccc1 (centres unmarked)
Mice [1]
  AD50 Tail-Flick: 500 µg/kg and 1000 µg/kg
Mice [2]
  AD50 Hot-Plate: 1200 µg/kg and 2400 µg/kg

Source: patent US9150581B2, “Nicotinic receptor compounds” (priority 2011, dated 2015)
